# Results taken from PubChem BioAssay AID540256 (National Center for Advancing Translational Sciences (NCATS), 2011).
# The campaign covered roughly 300,000 compounds. About 3,700 (1.2%) were called active. This list was built around the results that the source calls inconclusive (neither active nor inactive); the mix of calls is not that of the screen. Calls come from the whole dose curve; tested in HEK293 cells. Where the call is inconclusive, the potency comes from a doubtful curve fit.
# Test: qHTS for Inhibitors of binding or entry into cells for Lassa Virus; note: nearly all actives have a fitted effect of over 50% in size
# Conditions: Lassa virus pseudotype entry inhibition, cell reporter; series mostly up to 37.9 µM
# Potency is the fitted concentration of half-maximal effect.
row,SMILES,Potency
1,CCCCC(OC(=O)CN1C(=O)COc2ccccc21)C(=O)NC1CCCCC1 (stereo unspecified),inactive
2,O=C(NCC1CCCCC1)c1ccc(F)cc1Cl,"inconclusive: 35.5 µM [inhibitor, single point]"
3,Cc1cccc(NC(=S)NCc2ccc(F)cc2)c1,"inconclusive: 29.1 µM [inhibitor, single point]"
4,CN1CCN(C(=O)c2ccccc2NC(=O)c2sc3ccccc3c2Cl)CC1,"inconclusive: 1.26 µM [inhibitor, single point]"
5,Cc1cc(-c2ccccc2)nc(N/N=C/c2ccc([N+](=O)[O-])cc2)n1,"inconclusive: 35.5 µM [inhibitor, single point]"
6,O=[N+]([O-])c1ccc2nc(-c3ccccn3)[nH]c2c1,"inconclusive: 35.5 µM [inhibitor, single point]"
7,CCC(CC)C(=O)OCC(=O)Nc1cccc([N+](=O)[O-])c1,"inconclusive: 12.6 µM [activator, single point]"
8,Cc1cc2nc(CCN3CCOCC3)n(S(=O)(=O)c3ccc(C(C)(C)C)cc3)c2cc1C,"inconclusive: 29.1 µM [inhibitor, single point]"
9,O=C1C(Cl)=C(NCc2cccnc2)C(=O)c2ccccc21,"inconclusive: 28.2 µM [inhibitor, single point]"
10,CSc1ccc(/C=N/Nc2nc(C)cc(C)n2)cc1,active: 7.08 µM
11,CCOC(=O)c1c(NC(=O)COC(=O)c2c(C)noc2C)sc2c1CCC2,"inconclusive: 29.1 µM [inhibitor, single point]"
12,NC(=O)Cc1nc(-c2ccccc2)cs1,inactive
13,Cc1cc(C)c2c(=O)cc(C(=O)Nc3ccc(S(=O)(=O)Nc4nc(C)cc(C)n4)cc3)oc2c1,inactive
14,COc1ccccc1CC(=O)Nc1cccc(S(=O)(=O)N2CCOCC2)c1,inactive
15,COc1cc(NC(=O)c2c(OC)cccc2OC)ccc1NC(=O)c1cc2ccccc2o1,inactive
16,COc1ccccc1Oc1coc2cc(OC(=O)N3CCOCC3)ccc2c1=O,inactive
17,c1ccc(COC2COC3C(OCc4ccccc4)COC23)cc1 (stereo unspecified),"inconclusive: 0.794 µM [inhibitor, single point]"
18,CCc1ccc(NC(=S)/N=C(\N)Nc2nc(C)c3cc(CC)ccc3n2)cc1,"inconclusive: 7.08 µM [inhibitor, partial curve, poor fit]"
19,Cc1nc(NCc2ccco2)c2c(C)c(C)sc2n1,inactive
20,Cc1ccc(NC(=O)Cn2c(CCC(=O)O)ccc2-c2cccs2)cc1,inactive
21,CN(C)c1ccc(CN(C(=O)c2ccc(Cl)c([N+](=O)[O-])c2)C2CCS(=O)(=O)C2)cc1 (stereo unspecified),"inconclusive: 22.4 µM [inhibitor, single point]"
22,CCC(C(=O)OCc1cc(=O)n2nc(CCOC)sc2n1)c1ccccc1 (stereo unspecified),inactive
23,Nn1c(SCc2cn3cc(Cl)ccc3n2)nnc1-c1ccncc1,inactive
24,Cc1ccc(NC(=O)c2cc(C)n(-c3ccccc3)c2C)cc1,active: 2.82 µM

row,SMILES,Potency
1,O=C(c1ccoc1)N1CCCC(N2CCN(c3cccc(C(F)(F)F)c3)CC2)C1 (stereo unspecified),"inconclusive: 22.4 µM [inhibitor, partial curve, poor fit]"
2,Cc1nc2sc(C(=O)NCc3ccc(Cl)cc3)c(NC(=O)c3ccccc3)c2c(C)c1C,"inconclusive: 3.16 µM [inhibitor, single point]"
3,COc1ccc(S(=O)(=O)Nc2ccc3c(c2)N(C(C)=O)CCC3)cc1,"inconclusive: 35.5 µM [inhibitor, single point]"
4,Cc1ccc(-c2nc(C)c(C(=O)O)s2)cc1,"inconclusive: 18.3 µM [inhibitor, single point]"
5,CC(=O)Nc1ccc(C2=NNC(=Nc3ccc(S(=O)(=O)N4CCOCC4)cc3)SC2)cc1,"inconclusive: 35.5 µM [inhibitor, single point]"
6,O=C(OCC(=O)N1CCCC1)c1ccccc1O,"inconclusive: 6.31 µM [inhibitor, single point]"
7,COP(=O)(OC)C(NS(=O)(=O)c1ccccc1)C(Cl)(Cl)Cl (stereo unspecified),"inconclusive: 35.5 µM [inhibitor, single point]"
8,CCCSCCCNC(=O)c1cc2c(s1)CS(=O)(=O)C2,"inconclusive: 0.103 µM [activator, full curve, poor fit]"
9,CC12CCC3c4ccc(O)cc4CCC3C1CC(=NO)C2O (stereo unspecified),"inconclusive: 35.5 µM [inhibitor, single point]"
10,O=C(CSc1ccc(-c2ccco2)nn1)Nc1cccc(F)c1,"inconclusive: 14.1 µM [inhibitor, single point]"
11,C=CCOC(=O)C1=C(C)NC(SC)=C(C#N)C1c1cccs1 (stereo unspecified),inactive
12,Cc1cc(C)n(C(=O)c2cc(F)c(F)cc2C)n1,inactive
13,C=CCCN1[C@@H](Cc2ccccc2)COc2ccccc2S1(=O)=O,"inconclusive: 31.5 µM [inhibitor, single point]"
14,Cc1cc(C)c(NC(=O)Cn2c(=O)n(CCCCC(=O)NCc3ccccc3Cl)c(=O)c3ccccc32)c(C)c1,inactive
15,CCOC(=O)c1c(C)n(-c2ccccc2)c2ccc(OCCN(C)C)cc12,"inconclusive: 35.5 µM [inhibitor, single point]"
16,COc1ccc(CNC(=O)c2cnn3c(C)c(Cc4ccc(F)cc4)c(C)nc23)cc1,"inconclusive: 3.16 µM [inhibitor, single point]"
17,COc1ccc(C(=O)Cn2cnc3ccccc3c2=O)cc1,inactive
18,Cc1ccc(C2=N/C(=C\c3cccs3)C(=O)N2Nc2ccccc2)cc1,inactive
19,O=C(NC1CC1)c1ccc(-c2nc3ccccc3s2)s1,active: 1.26 µM
20,CCC(=O)Oc1ccc(-c2nc(-c3cccnc3)no2)cc1,"inconclusive: 23.1 µM [inhibitor, partial curve, poor fit]"
21,CN(C)c1ccc(NC(=O)c2ccc(Cn3cc([N+](=O)[O-])cn3)cc2)cc1,inactive
22,O=C(NC(=S)Nc1cccc(C(F)(F)F)c1)c1ccc2nonc2c1,"inconclusive: 39.8 µM [inhibitor, partial curve, poor fit]"
23,CN(C(=O)COC(=O)c1ccccc1Nc1ccccc1)c1c(N)n(Cc2ccccc2)c(=O)[nH]c1=O,"inconclusive: 25.1 µM [inhibitor, single point]"
24,CCc1sc(C(=O)Nc2ccc(F)cc2C)cc1C,"inconclusive: 25.1 µM [activator, single point]"

row,SMILES,Potency
1,CCCN1C(=O)/C(=C/c2ccc(C)s2)SC1=Nc1ccc(OC)cc1,"inconclusive: 3.98 µM [inhibitor, full curve, poor fit]"
2,Cc1cc(Nc2cccc(Cl)c2C)n2nc(Cc3ccccc3)nc2n1,inactive
3,COc1cc(OC)c(OC)cc1CNC(=O)c1ccc(COc2ccccc2)cc1,inactive
4,Cc1nn(-c2ccccc2)c(Cl)c1C(=O)N1CCN(c2ncnc3c2cnn3-c2ccccc2)CC1,active: 12.6 µM
5,CC(=O)N(c1ccc(N(C(C)=O)S(=O)(=O)c2ccccc2)cc1)S(=O)(=O)c1ccccc1,"inconclusive: 10 µM [inhibitor, partial curve, poor fit]"
6,COc1ccc(Cl)c(Cn2c(NCCN)nc3c2c(=O)n(C)c(=O)n3C)c1,inactive
7,CCCCN(CC)CCCNC(=S)Nc1ccc2nc(N3CCN(CC)CC3)cc(C)c2c1,"inconclusive: 10 µM [inhibitor, partial curve, poor fit]"
8,O=S(=O)(c1ccccc1)c1nc(Nc2ccccc2N2CCOCC2)sc1Cl,"inconclusive: 18.3 µM [inhibitor, partial curve, poor fit]"
9,O=[N+]([O-])c1ccc(NN=Cc2ccc(O)cc2)nc1,"inconclusive: 25.1 µM [inhibitor, single point]"
10,CCCc1cc(=O)n2[nH]c(-c3cccc(Br)c3)cc2n1,"inconclusive: 3.98 µM [activator, partial curve, poor fit]"
11,Cc1ccc(N2C(=O)C3C4C=CC(CNC(=S)Nc5cccc(Cl)c5)(O4)C3C2=O)cc1 (stereo unspecified),"inconclusive: 35.5 µM [inhibitor, single point]"
12,Cc1cc(N2CCC(C)CC2)nc(NCc2ccccc2)n1,active: 18.4 µM
13,Cc1ccc(S(=O)(=O)N/N=c2\sc3ccccc3n2C)cc1,inactive
14,COc1ccc(S(=O)(=O)N2CCOCC2)cc1NC(=O)CN1CCCCCC1,"inconclusive: 0.891 µM [inhibitor, single point]"
15,COc1ccc(S(=O)(=O)N/N=C\c2ccc3c(c2)OCO3)c(OC)c1,"inconclusive: 4.47 µM [inhibitor, full curve, poor fit]"
16,Cc1cc(C(=O)CSc2nncs2)c(C)n1-c1ccc2c(c1)OCO2,inactive
17,Cc1ccc(OCCSc2nc3ccccc3n2CC(=O)N2CCOCC2)c(C)c1,inactive
18,CC(=O)c1c(C)[nH]c(C(=O)OCC(=O)Nc2cccc(S(=O)(=O)N(C)C)c2)c1C,inactive
19,Cc1ccc(Cl)cc1NC(=O)Cn1nc2c(cc1=O)CC(C)CC2 (stereo unspecified),inactive
20,O=C(c1cnn2c(C(F)F)cc(C3CC3)nc12)N1CCc2ccccc2C1,"inconclusive: 11.2 µM [inhibitor, partial curve]"
21,O=S1(=O)N=C(N/N=C/c2cccs2)c2ccccc21,"inconclusive: 2.51 µM [inhibitor, full curve, poor fit]"
22,COC(=O)C(NC(=O)c1ccc(F)cc1)(Nc1ncc(S(=O)(=O)c2ccc([N+](=O)[O-])cc2)s1)C(F)(F)F (stereo unspecified),"inconclusive: 35.5 µM [inhibitor, single point]"
23,CCOc1ccc(NC(=O)Nc2cc(OCC(F)(F)F)cc(OCC(F)(F)F)c2)cc1,"inconclusive: 13 µM [inhibitor, partial curve, poor fit]"

# Fetched one by one from the list above, two records:
row,SMILES,Potency
3,COc1cc(OC)c(OC)cc1CNC(=O)c1ccc(COc2ccccc2)cc1,inactive
20,O=C(c1cnn2c(C(F)F)cc(C3CC3)nc12)N1CCc2ccccc2C1,"inconclusive: 11.2 µM [inhibitor, partial curve]"
